# Measurements published in article PMC10535824 (Pharmaceuticals, 2023).
# Square brackets hold non-standard residues; d marks the D form. 1Nal = N[C@@H](Cc1cccc2ccccc12)C(=O)O; 2Nal = N[C@@H](Cc1ccc2ccccc2c1)C(=O)O; d1Nal = N[C@H](Cc1cccc2ccccc12)C(=O)O; d2Nal = N[C@H](Cc1ccc2ccccc2c1)C(=O)O; Bta = N[C@@H](Cc1csc2ccccc12)C(=O)O; dBta = N[C@H](Cc1csc2ccccc12)C(=O)O
# Experiment: peptide synthesis
# Conditions: cyclisation step, on linear precursor
substance,measurement,value
cyclo(F[dP]F[2Nal]) (SMILES O=C1N[C@@H](Cc2ccccc2)C(=O)N2CCC[C@@H]2C(=O)N[C@@H](Cc2ccccc2)C(=O)N[C@H]1Cc1ccc2ccccc2c1),cyclisation yield,82%
cyclo(F[dP]F[1Nal]) (SMILES O=C1N[C@@H](Cc2ccccc2)C(=O)N2CCC[C@@H]2C(=O)N[C@@H](Cc2ccccc2)C(=O)N[C@H]1Cc1cccc2ccccc12),cyclisation yield,50%
cyclo(F[dP]F[d2Nal]) (SMILES O=C1N[C@H](Cc2ccc3ccccc3c2)C(=O)N[C@@H](Cc2ccccc2)C(=O)N2CCC[C@@H]2C(=O)N[C@H]1Cc1ccccc1),cyclisation yield,67%
cyclo(F[dP]F[dBta]) (SMILES O=C1N[C@H](Cc2csc3ccccc23)C(=O)N[C@@H](Cc2ccccc2)C(=O)N2CCC[C@@H]2C(=O)N[C@H]1Cc1ccccc1),cyclisation yield,61%
cyclo(F[dP]F[d1Nal]) (SMILES O=C1N[C@H](Cc2cccc3ccccc23)C(=O)N[C@@H](Cc2ccccc2)C(=O)N2CCC[C@@H]2C(=O)N[C@H]1Cc1ccccc1),cyclisation yield,57%
cyclo(F[dP]F[Bta]) (SMILES O=C1N[C@@H](Cc2ccccc2)C(=O)N2CCC[C@@H]2C(=O)N[C@@H](Cc2ccccc2)C(=O)N[C@H]1Cc1csc2ccccc12),cyclisation yield,49%
